PubChem BioAssay AID1224828, NIAID, 2016
Aim: 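Knock-downs that increase or decrease LPS-induced p65 nuclear translocation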 (primary screen). Cell system: mouse RAW264.7 G9 macrophage reporter cells (GFP-p65, Tnf promoter-mCherry). Reagent: siRNA pool against mouse genes, 100 nM. Duration: 2 days siRNA transfection, then 40 min LPS before fixation. Conditions: LPS (Salmonella minnesota R595) at 10 ng/ml. Read-out: 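Imaged p65 nuclear translocation ratio, normalised to the plate median, converted to robust z-scores and averaged across two replicates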. Direction: p65 translocation robust z-score: higher = more nuclear NF-kappaB p65 after LPS than the plate median; nuclear/cytoplasmic p65 ratio: higher = more nuclear NF-kappaB p65. Active means: 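Active if robust z is above 3.3 (negative regulators) or below -1.56, the Tlr4 control median (positive regulators); activity score 50 or more; control wells not called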. Meaning of the calls: active = hit (p65 shift raised or lowered); inactive = no clear change.
Shown is one part, drawn at random, of about 17,000 reagents tested. Of all reagents, 762 (4.5%) got an active call. 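Active calls include both raised and lowered p65 entry, mostly lowered; wells with fewer than 50 cells lack a z-score.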 Raw values are not corrected between plates. Unmarked entries are inactive.

| gene | p65 translocation robust z-score | nuclear/cytoplasmic p65 ratio, rep 1 | nuclear/cytoplasmic p65 ratio, rep 2 | low cell count flag |
| --- | --- | --- | --- | --- |
| Bcl7c (B cell CLL/lymphoma 7C) | 1.84 | 1.72 | 1.73 | enough cells to score |
| Prr18 (proline rich 18) | -0.63 | 1.32 | 1.46 | enough cells to score |
| Slc46a3 | -0.02 | 1.42 | 1.42 | enough cells to score |
| Lrsam1 (leucine rich repeat and sterile alpha motif containing 1) | -3.02 (active) | 1.37 | 0.996 | enough cells to score |
| Adgra1 (adhesion G protein-coupled receptor A1) | 0.74 | 1.69 | 1.64 | enough cells to score |
| Ereg (epiregulin) | -0.77 | 1.34 | 1.28 | enough cells to score |
| Mmadhc | – | 1.27 | 1.14 | fewer than 50 cells per well; well left out of scoring |
| Or4b1d (olfactory receptor family 4 subfamily B member 1D) | – | 1.99 | 1.36 | fewer than 50 cells per well; well left out of scoring |
| Phip (pleckstrin homology domain interacting protein) | -0.12 | 1.46 | 1.41 | enough cells to score |
| Ifna11 (interferon alpha 11) | 0.52 | 1.6 | 1.4 | enough cells to score |
| Tlr9 (toll-like receptor 9) | 1.09 | 1.63 | 1.71 | enough cells to score |
| Cnot8 (CCR4-NOT transcription complex, subunit 8) | 0.65 | 1.5 | 1.51 | enough cells to score |
| Pithd1 | 0.97 | 1.63 | 1.63 | enough cells to score |
| Anks4b (ankyrin repeat and sterile alpha motif domain containing 4B) | 0.94 | 1.58 | 1.69 | enough cells to score |
| Sprr2j-ps (small proline-rich protein 2J, pseudogene) | 1.17 | 1.6 | 1.36 | enough cells to score |
| Tram2 (translocating chain-associating membrane protein 2) | 1.83 | 1.47 | 1.39 | enough cells to score |
| Bcl10 (B cell leukemia/lymphoma 10) | 0.76 | 1.64 | 1.81 | enough cells to score |
| Ndufaf4 (NADH:ubiquinone oxidoreductase complex assembly factor 4) | -1.84 (active) | 1.24 | 1.12 | enough cells to score |
| Hao1 (hydroxyacid oxidase 1, liver) | 1.72 | 1.98 | 1.72 | enough cells to score |
| 4930555G01Rik (RIKEN cDNA 4930555G01 gene) | – | 1.15 | 1.38 | fewer than 50 cells per well; well left out of scoring |
| Nek2 (NIMA (never in mitosis gene a)-related expressed kinase 2) | -1.53 | 1.36 | 1.25 | enough cells to score |
| Neil3 (nei like 3 (E. coli)) | -0.15 | 1.5 | 1.82 | enough cells to score |
| Mpped1 (metallophosphoesterase domain containing 1) | 1.24 | 1.86 | 1.88 | enough cells to score |
| Yipf7 (Yip1 domain family, member 7) | – | 1.12 | 1.44 | fewer than 50 cells per well; well left out of scoring |
| Kng1 (kininogen 1) | 0.84 | 1.61 | 1.47 | enough cells to score |
| Rims4 (regulating synaptic membrane exocytosis 4) | – | 1.37 | 1.13 | fewer than 50 cells per well; well left out of scoring |
| Arxes1 (adipocyte-related X-chromosome expressed sequence 1) | 0.26 | 1.42 | 1.62 | enough cells to score |
| Gpr143 (G protein-coupled receptor 143) | -0.26 | 1.49 | 1.53 | enough cells to score |
| Cypt3 (cysteine-rich perinuclear theca 3) | 2.9 | 2.02 | 1.55 | enough cells to score |
| Cep95 (centrosomal protein 95) | – | 1.27 | 1.02 | fewer than 50 cells per well; well left out of scoring |
| Coprs (coordinator of PRMT5, differentiation stimulator) | 1.38 | 1.49 | 1.65 | enough cells to score |
| Rrp1 (ribosomal RNA processing 1) | 1.77 | 1.98 | 1.79 | enough cells to score |
| Gria4 (glutamate receptor, ionotropic, AMPA4 (alpha 4)) | 0.02 | 1.43 | 1.38 | enough cells to score |
| Hpcal4 (hippocalcin-like 4) | 1.2 | 1.8 | 1.74 | enough cells to score |
| Kcna10 | 1.22 | 1.61 | 1.52 | enough cells to score |

Limited to “nuclear/cytoplasmic p65 ratio, rep 1” (4 entries from above):
Tlr9 (toll-like receptor 9): 1.63
Cnot8 (CCR4-NOT transcription complex, subunit 8): 1.5
Pithd1: 1.63
Anks4b (ankyrin repeat and sterile alpha motif domain containing 4B): 1.58

The listing continues.
| gene | p65 translocation robust z-score | nuclear/cytoplasmic p65 ratio, rep 1 | nuclear/cytoplasmic p65 ratio, rep 2 | low cell count flag |
| --- | --- | --- | --- | --- |
| Fam161a (family with sequence similarity 161, member A) | -2.14 (active) | 1.01 | 1.02 | enough cells to score |
| Xpa (xeroderma pigmentosum, complementation group A) | -1.91 (active) | 1.26 | 1.37 | enough cells to score |
| Spats2 (spermatogenesis associated, serine-rich 2) | 0.78 | 1.52 | 1.32 | enough cells to score |
| Frmd6 (FERM domain containing 6) | – | 1.03 | 1.24 | fewer than 50 cells per well; well left out of scoring |
| Sik1 (salt inducible kinase 1) | -0.38 | 1.56 | 1.38 | enough cells to score |
| Hhex (hematopoietically expressed homeobox) | 2.72 | 1.83 | 1.69 | enough cells to score |
| Ly6g5b (lymphocyte antigen 6 family member G5B) | 0.56 | 1.94 | 1.51 | enough cells to score |
| Cox16 (cytochrome c oxidase assembly protein 16) | – | 1.5 | 1.4 | fewer than 50 cells per well; well left out of scoring |
| Tlr8 (toll-like receptor 8) | 0.04 | 1.46 | 1.59 | enough cells to score |
| Sfpq | -1.08 | 1.38 | 1.42 | enough cells to score |
| Gnl2 (guanine nucleotide binding protein nucleolar 2) | 0.12 | 1.34 | 1.87 | enough cells to score |
| Col4a2 (collagen, type IV, alpha 2) | 0.12 | 1.49 | 1.39 | enough cells to score |
| Rnf2 (ring finger protein 2) | – | 1.26 | 1.21 | fewer than 50 cells per well; well left out of scoring |
| Myo1d (myosin ID) | 2.09 | 1.79 | 1.76 | enough cells to score |
| Plekhg2 (pleckstrin homology and RhoGEF domain containing G2) | 0.11 | 1.59 | 1.67 | enough cells to score |
| Afap1l1 (actin filament associated protein 1-like 1) | -0.88 | 1.41 | 1.62 | enough cells to score |
| Elf1 (E74 like ETS transcription factor 1) | -0.23 | 1.46 | 1.31 | enough cells to score |
| Haus3 (HAUS augmin-like complex, subunit 3) | 1.39 | 1.81 | 2.05 | enough cells to score |
| Ern1 (endoplasmic reticulum to nucleus signalling 1) | – | 1.68 | 1.26 | fewer than 50 cells per well; well left out of scoring |
| Trat1 (T cell receptor associated transmembrane adaptor 1) | -0.47 | 1.64 | 1.3 | enough cells to score |
| Hsd17b3 (hydroxysteroid (17-beta) dehydrogenase 3) | 0.42 | 1.37 | 1.44 | enough cells to score |
| Ppp2cb | 2.04 | 1.73 | 1.63 | enough cells to score |
| Rnls (renalase, FAD-dependent amine oxidase) | -0.72 | 1.3 | 1.47 | enough cells to score |
| Grap (GRB2-related adaptor protein) | -1.47 | 1.23 | 1.19 | enough cells to score |
